# Measured values as given in PubChem BioAssay AID1259354 (Paczesny and Yang Labs, IUPUI and University of Michigan, 2018).
# Protein sequences, listed by entry. Tags and fused reporters are not part of them. Lines headed by an entry give the natural chain unless they say otherwise; changes in a name come on top.
# UniProt Q01638: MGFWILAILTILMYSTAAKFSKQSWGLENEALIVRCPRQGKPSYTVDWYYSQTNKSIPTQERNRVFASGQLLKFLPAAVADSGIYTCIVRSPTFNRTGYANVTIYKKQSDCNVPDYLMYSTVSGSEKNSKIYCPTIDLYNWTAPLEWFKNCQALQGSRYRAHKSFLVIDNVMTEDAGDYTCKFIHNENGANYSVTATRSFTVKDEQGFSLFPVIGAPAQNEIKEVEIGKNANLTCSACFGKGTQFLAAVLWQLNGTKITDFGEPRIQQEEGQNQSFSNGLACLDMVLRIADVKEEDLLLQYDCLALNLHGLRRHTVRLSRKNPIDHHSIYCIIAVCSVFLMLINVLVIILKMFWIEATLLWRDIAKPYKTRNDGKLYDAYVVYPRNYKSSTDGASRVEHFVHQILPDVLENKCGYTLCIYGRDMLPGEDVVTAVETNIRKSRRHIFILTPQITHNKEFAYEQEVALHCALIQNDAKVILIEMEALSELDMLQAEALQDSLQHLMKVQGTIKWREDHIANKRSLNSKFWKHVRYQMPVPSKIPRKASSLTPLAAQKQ
# Out of some 78,000 compounds screened, about 1,800 (2.3%) were called active. This list was built around the results that the source calls inconclusive (neither active nor inactive); the mix of calls is not that of the screen. Cut-off read from the data, not from the text of the source: active = inhibition above about 30%; inconclusive = mostly about 10% to 28%; inactive = weaker than that.
# Target: Interleukin-1 receptor-like 1 (Homo sapiens) (UniProt Q01638)
# Assay: blocks human ST2 binding to IL-33, primary screen, biochemical, AlphaLISA (AID 1259354)
# Conditions: AlphaLISA ST2-Fc/biotin-IL-33 interaction, 1 h; at 17 µM, active compounds read high
row,SMILES,inhibition
1,Oc1oc(-c2ccc(Br)cc2)nc1C=Nc1ccccc1Br,inconclusive: 21%
2,COc1cccc(N(CC(=O)N2CCC(Cc3ccccc3)CC2)S(C)(=O)=O)c1,inconclusive: 13%
3,CCn1cc(-c2cccnc2OC)cn1,inactive
4,CN(CC1CCN(CCc2ccc(F)cc2)CC1)C(=O)c1ccc(-n2ccnc2)cc1,inconclusive: 24%
5,COc1cc(-c2oc(-c3ccc(O)c(OC)c3)c(C)c2C)ccc1O,inactive
6,CN1CCN([C@@H]2[C@H](O)[C@H](CO)O[C@@H]2CNC(=O)c2ccc(C(F)(F)F)cc2)CC1,inconclusive: 12%
7,CSc1cccc(-n2c(CCN)n[nH]c2=O)c1,inactive
8,CCC(=O)NC1=NC(=O)/C(=C/c2ccc(-c3ccccc3F)o2)S1,inconclusive: 15%
9,CN(CC1CCN(CCc2ccc(Cl)cc2)CC1)C(=O)c1ccc(C(F)(F)F)cc1,inactive
10,CCc1[nH]c2c(CNC(=O)CCCN3CCCCC3=O)cc(F)cc2c1C,inconclusive: 15%
11,Cc1nc2nc(C)c(NC(=O)Nc3ccc4c(c3)OCCO4)c(=O)n2[nH]1,inconclusive: 12%
12,COc1ccc(N2CCN(Cc3ncccc3F)C(C)C2)cc1 (stereo not given),inconclusive: 13%
13,O=C(NCc1ccc(Cl)cc1)c1cnccn1,inconclusive: 13%
14,CCN(CC)C(=O)[C@@H](C)C1CC[C@@]2(C)CC[C@H](NC(=O)c3ccncc3)[C@@H](C)[C@@H]2[C@H]1O (stereo not given in full),active: 49%
15,Cc1cc(NC(=O)c2cc(CC(C)C)on2)n(-c2ccccc2)n1,inconclusive: 11%
16,O=C1CC(c2ccccc2Cl)CC2=C1C(c1ccsc1)Nc1ccccc1N2 (stereo not given),inconclusive: 19%
17,CCOc1ccc(CN2CCc3ccccc3C2)cc1,inactive
18,CN(C)c1ccc(CN2CCCC(O)C2)cc1 (stereo not given),inconclusive: 15%
19,CCCc1nc2nc[nH]n2c(=O)c1NC(=O)NCc1ccccc1,inactive
20,O=Cc1cn(CC(=O)N2CCCCCC2)c2ccc(Br)cc12,inactive
21,Cc1nc(-c2ccccc2O)n(-c2ccccc2)n1,inconclusive: 21%
22,CCC1Oc2ccccc2N(CC(=O)NCCN2CCOCC2)C1=O (stereo not given),inactive
23,COc1ccc(-c2cnccc2C)c(OC)c1,inactive
24,Clc1ccc(-n2ncc3c(N4CCN(Cc5ccccc5)CC4)ncnc32)cc1,inconclusive: 10%

# By substructure: those above containing an aryl methoxy group (5)
row,SMILES,inhibition
2,COc1cccc(N(CC(=O)N2CCC(Cc3ccccc3)CC2)S(C)(=O)=O)c1,inconclusive: 13%
3,CCn1cc(-c2cccnc2OC)cn1,inactive
5,COc1cc(-c2oc(-c3ccc(O)c(OC)c3)c(C)c2C)ccc1O,inactive
12,COc1ccc(N2CCN(Cc3ncccc3F)C(C)C2)cc1 (stereo not given),inconclusive: 13%
23,COc1ccc(-c2cnccc2C)c(OC)c1,inactive

# The listing continues:

row,SMILES,inhibition
1,O=C(c1ccc([N+](=O)[O-])cc1)N1CCN=C1SCc1ccccc1,inconclusive: 16%
2,O=[N+]([O-])c1ccccc1C=Nc1ccc2c(c1)OCCO2,inconclusive: 25%
3,N#CC(Cc1ccc(O)c(O)c1)C(=O)N1CCc2ccccc21 (stereo not given),inconclusive: 14%
4,COc1ccc(Nc2c(-c3ccco3)nc3ccc(Br)cn23)cc1,inactive
5,Cc1cccc(N2CCC(NCCN(C)S(C)(=O)=O)CC2)c1C,inactive
6,CC(=NS(=O)(=O)c1ccc(C)cc1)N1CCCC1,inactive
7,COc1ccc(OCC(=O)Nc2cc(C)ccc2OCc2cc(=O)n3oc(C)cc3n2)cc1,inactive
8,CCC(C)OC(=O)C1=C(C)NC2=C(C(=O)C(C(=O)OC)C(C)C2)C1c1ccccc1OC(C)C (stereo not given),inconclusive: 14%
9,C[N+](C)(C)CCCCCCCCCC[N+](C)(C)C,inactive
10,O=C(CCn1cncn1)N1CCC(Cc2nncn2-c2ccccc2)CC1,inconclusive: 19%
11,O=C(O)c1c[nH]c2ccc(S(=O)(=O)N3CCN(c4cccc(Cl)c4)CC3)cc2c1=O,inconclusive: 13%
12,O=C(Cn1cccn1)NCc1cccnc1Oc1ccc(F)c(F)c1,inactive
13,COc1cccc(C(=O)Nc2ccc(NC(=O)c3ccco3)cc2)c1,inconclusive: 15%
14,CCOCCn1c(=O)c2c(nc3n2CCN3c2ccc(Br)cc2)n(C)c1=O,inconclusive: 18%
15,Cc1cc(N2CCCCC2)nc2ccc(NC(=O)CCC(=O)N3CCC(C(N)=O)CC3)cc12,inactive
16,CC1=C(C#N)C(=O)N(C)C(=O)/C1=C/c1ccc(-c2cccc(Cl)c2C)o1,inconclusive: 10%
17,O=c1oc2ccccc2cc1-c1cn(-c2ccccc2)c(=O)[nH]1,inconclusive: 25%
18,CN(CCc1ccccc1)[C@@H]1[C@H](O)[C@H](CO)O[C@@H]1CN,inconclusive: 15%
19,Cc1cccnc1CN1CCN(CC(C)c2ccccc2)CC1 (stereo not given),inconclusive: 13%
20,Cn1cc(SCC(=O)N2CCCC3(CC2)CNC(=O)O3)c2ccccc21 (stereo not given),inconclusive: 11%
21,CN(C)CCNc1cc(-c2n[nH]c(C(F)(F)F)n2)c2cc[nH]c2n1,inconclusive: 10%
22,CCOC(=O)C1CCC(CNC(=O)Nc2c(C)nc3nc[nH]n3c2=O)CC1 (stereo not given),inconclusive: 10%
23,CCC(C)NC(=O)C1CCN(S(=O)(=O)N2CCCCC2)CC1 (stereo not given),inactive
24,CCOc1ncccc1C(=O)N1CC[C@H](O)[C@@H](O)C1,inconclusive: 14%

row,SMILES,inhibition
1,COc1nc(C)cc(C)c1CNC(=O)CN1CCCN(C)CC1,inconclusive: 13%
2,CCOC(=O)C1=C(C)Nc2nc(SCc3ccccc3)nn2C1c1ccc(OC)cc1OC (stereo not given),inactive
3,COC(=O)[C@@H]1CCCN1C(=O)c1ccccc1NCc1cccs1,inactive
4,O=C(O)/C=C/c1ccc(O)c(O)c1,inconclusive: 11%
5,COc1ccc(Nc2cc(C)nc(N3CCN(S(=O)(=O)c4ccccc4F)CC3)n2)cc1,inconclusive: 10%
6,COc1ccc(-c2noc([C@@H]3C[C@@H](O)CN3Cc3ccc(C(=O)O)cc3)n2)cc1,inactive
7,COc1ccc(CNC(=O)C[C@@H]2O[C@H](CNC(=O)C3CC3)[C@@H](O)[C@H]2O)cc1,inactive
8,CCc1nnc(NC(=O)c2ccc(Br)c(S(=O)(=O)N(CC)CC)c2)s1,inconclusive: 21%
9,CC(=O)c1ccc(N=Cc2ccccc2Cl)cc1,inconclusive: 22%
10,Cc1cccc(C(C(=O)NCc2nc(C)cc(C(F)(F)F)n2)N(C)C)c1 (stereo not given),inconclusive: 16%
11,COc1ccc(C2Nc3ccccc3C(=O)N2c2ccc(F)c(Cl)c2)cc1 (stereo not given),inconclusive: 11%
12,O=C(Nc1ccc(-c2nc3ncccc3o2)cc1)c1cccnc1,inactive
13,Cc1nc2ccc(C(=O)O)cc2[nH]1,inconclusive: 12%
14,Cc1ccc(OCc2cc(C(=O)N3CCN(C)C(c4ccccc4)C3)no2)cn1 (stereo not given),inconclusive: 20%
15,COc1cc(C)nc(N(C)S(=O)(=O)c2ccccc2)n1,inconclusive: 10%
16,Clc1ccc(Cn2c(CN3CCCC3)nc3ccccc32)cc1,inconclusive: 24%
17,CCOC(=O)N1CCN(Cc2ccc3c(c2)CN(C(=O)c2ccc4ncccc4c2)CCO3)CC1,inactive
18,COc1ccc(CCNC(=O)CN2[C@@H]3CC[C@H]2CC(O)C3)cc1 (stereo not given in full),inconclusive: 17%
19,Cc1ccc(NC(=O)C(=O)NCCN2CCOCC2)c(C)c1,inconclusive: 10%
20,N#Cc1c(N)nc2c(c1-c1ccco1)CCCC2,inconclusive: 14%
21,CC(C)CC(=O)NC(C)C(c1cccs1)N1CCN(c2ccccc2)CC1 (stereo not given),inconclusive: 13%
22,O=C(CCN1CCc2ccccc21)NCc1cnn2ccccc12,inconclusive: 16%
23,CCCN(Cc1cccc(Cl)c1)C(=O)CCSC,inconclusive: 20%
24,O=C(Nc1ccc2c(c1)OCCO2)c1coc(=O)c2ccccc12,inconclusive: 16%

row,SMILES,inhibition
1,CCCC12CN3CC(C)(CN(C1)C3c1ccc([N+](=O)[O-])cc1)C2=O (stereo not given),inconclusive: 19%
2,CN1CCN([C@@H]2[C@H](O)[C@H](CO)O[C@@H]2CNC(=O)c2ccc(F)c(Cl)c2)CC1,inconclusive: 13%
3,COc1ccc(N=Cc2c(O)n(-c3ccccc3OC)c(=O)c3ccccc23)cc1OC,inconclusive: 15%
4,CCOc1ccc2sc(C=NCc3ccco3)c(O)c2c1,active: 31%
5,CC1CCCN(C(=O)CN2CCCN(Cc3cccc(Cl)c3)S2(=O)=O)C1 (stereo not given),inconclusive: 15%
6,COc1cccc(/C=C2/SC(=Nc3ccc(C)cc3)N(C)C2=O)c1OC,inconclusive: 28%
7,COc1cc(C(=O)N[C@H]2CO[C@H]3[C@@H]2OC[C@H]3OC(=O)Nc2ccccc2)cc(OC)c1OC,inconclusive: 17%
8,CCn1ncnc1C(C)NC1CSCCSC1 (stereo not given),inconclusive: 11%
9,CCc1nc2cccnc2n1C1CCN(S(=O)(=O)c2ccc(OC)c(OC)c2)CC1,inconclusive: 13%
10,CC(C)CN1CC(C(=O)N2CCCN(S(C)(=O)=O)CC2)CC1=O (stereo not given),inactive
11,Cc1cc(Br)cc(C)c1NC(=O)COc1ccc([N+](=O)[O-])cc1,inconclusive: 14%
12,COc1cc(Cl)c(C)cc1NC(=O)CNC(=O)Cn1ccc2ccccc2c1=O,inconclusive: 12%
13,COc1ccc(-c2noc([C@@H]3C[C@H](NS(=O)(=O)c4ccc(Cl)cc4)CN3C)n2)cc1,inconclusive: 20%
14,Cc1cc(NC(=O)c2cc(-c3ccc4c(c3)OCO4)nc3ccccc23)no1,inactive
15,C=C1C(=O)OC2/C=C(\C)CC/C=C(\CO)CC(O)C12 (stereo not given),inactive
16,CC1=NN(c2ccc(Cl)cc2Cl)C(=O)/C1=C\c1ccc(Cl)cc1,inconclusive: 20%
17,CC1(C)CC(=O)C2=C(C1)Nc1nc(SCc3ccccc3F)nn1C2c1cccnc1 (stereo not given),inconclusive: 11%
18,Cc1cccnc1CN1CCN(Cc2sccc2C)CC1,inconclusive: 12%
19,COc1ccccc1N1CCN(CCOc2ccc(Cl)cc2)CC1,inconclusive: 11%
20,O=C(Nc1cccc(NC(=O)c2ccc3c(c2)OCO3)n1)c1ccc2c(c1)OCO2,inactive
21,O=C(Nc1c(C(=O)Nc2ccc(F)cc2)oc2ccccc12)c1ccc(F)cc1,inactive
22,CCOC(=O)CNC(=O)N1CCCC(Nc2cccc(F)c2)C1 (stereo not given),inconclusive: 11%
23,COC(=O)c1c(C(=O)c2ccc(F)cc2)[nH]c2ccccc12,inconclusive: 14%

# Pulled by structure from the entries so far, 3 records:
row,SMILES,inhibition
8,CCC(=O)NC1=NC(=O)/C(=C/c2ccc(-c3ccccc3F)o2)S1,inconclusive: 15%
23,COc1ccc(-c2cnccc2C)c(OC)c1,inactive
20,O=C(Nc1cccc(NC(=O)c2ccc3c(c2)OCO3)n1)c1ccc2c(c1)OCO2,inactive
